Results taken from article PMC9942304, “Identification of RimR2 as a positive pathway-specific regulator of rimocidin biosynthesis in Streptomyces rimosus M527”.

molecular target: T1, RimR2 (Streptomyces rimosus M527) (UniProt A0ABY3YSD1); assay: EMSA; details: LightShift Chemiluminescent EMSA Kit (Thermo); 0.04 pmol/ul biotin probe, 10 ug RimR2; pH and temperature not stated; recombinant protein; label: biotin (5' in Fig. 5 legend, 3' in Methods)
T1 sequence (looked up, limits assumed): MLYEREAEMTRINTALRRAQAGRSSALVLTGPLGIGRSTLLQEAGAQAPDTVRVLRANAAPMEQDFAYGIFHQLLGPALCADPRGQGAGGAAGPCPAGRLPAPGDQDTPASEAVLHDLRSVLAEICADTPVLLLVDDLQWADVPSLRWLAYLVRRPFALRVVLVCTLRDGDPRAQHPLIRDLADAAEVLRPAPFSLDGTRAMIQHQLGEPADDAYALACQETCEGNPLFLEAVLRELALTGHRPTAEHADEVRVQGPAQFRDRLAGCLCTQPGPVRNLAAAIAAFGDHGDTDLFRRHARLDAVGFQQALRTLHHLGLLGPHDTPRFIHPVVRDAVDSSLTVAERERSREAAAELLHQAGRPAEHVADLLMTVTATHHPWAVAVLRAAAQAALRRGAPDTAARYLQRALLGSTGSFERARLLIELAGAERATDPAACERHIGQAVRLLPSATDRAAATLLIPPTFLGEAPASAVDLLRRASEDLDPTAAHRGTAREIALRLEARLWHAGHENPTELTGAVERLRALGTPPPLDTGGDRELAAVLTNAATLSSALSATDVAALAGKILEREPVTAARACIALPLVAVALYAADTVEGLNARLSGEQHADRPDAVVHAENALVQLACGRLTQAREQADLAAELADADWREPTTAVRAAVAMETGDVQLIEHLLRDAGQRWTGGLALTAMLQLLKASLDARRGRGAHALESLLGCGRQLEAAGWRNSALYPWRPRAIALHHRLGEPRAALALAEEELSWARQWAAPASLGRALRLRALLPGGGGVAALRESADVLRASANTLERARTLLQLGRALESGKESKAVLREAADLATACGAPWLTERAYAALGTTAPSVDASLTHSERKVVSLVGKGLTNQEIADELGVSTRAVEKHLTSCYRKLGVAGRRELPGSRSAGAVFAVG

Binding result, no binding:
CGCCGCGAGGAACTGCGGGAATTCCTGGCCGGGGAGTCCATCGAGACCCG (double strand) [rimG promoter probe]
GATCCTCGGACACCCGGCCCTGGCCCGGGCGTAACACCGCACGCACATCT (double strand) [rimF promoter probe]
GTCGGCCCGGGGCGTTTCATTCTCCGGATTTTCGCCACCTCGCTCGATTG (double strand) [rimR1 promoter probe]
TCTTTTGTGATCAGGATGGGGGCGCGCGGCGGCCCGGGGCCGGTGGACCA (double strand) [rimD promoter probe]
CCTCCCGCTCCGCCCGCGGCCATGTGGCCTTCGGCTACGGCGTACACCAG (double strand) [rimH promoter probe]

Construct, isoform or probe ends are uncertain for at least one entry. No signal at the amounts used counts as a negative. At least one verdict was read from the data and is not stated in words by the source. Protein sequences can lack the tags named with them.
